Experimental data as given in patent US20160355575A1.
No constants are given. Whether binding was seen depends on the method and setting. Some results given as binding are weak or reduced against the parent protein; the word gives no strength.

Sequences of proteins named here, by UniProt entry; tags and fusion partners are left off. Residues count along the entry.
Amyloid plaques (fibrillar amyloid β deposits in brain tissue) (P05067, residues 672-713): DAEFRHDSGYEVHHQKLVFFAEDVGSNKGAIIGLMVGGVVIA
Amyloid angiopathy (CAA), vascular amyloid β deposits (P05067, residues 672-711): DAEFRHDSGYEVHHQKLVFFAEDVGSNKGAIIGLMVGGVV

What was measured:
[1] = biological target: Amyloid angiopathy (CAA), vascular amyloid β deposits (human AD brain; transgenic mouse models) (UniProt P05067); assay: labeling, Table 1
[2] = biological target: Amyloid angiopathy (CAA), vascular amyloid β deposits (human AD brain; transgenic mouse models) (UniProt P05067); assay: labeling, summary of Table 1
[3] = biological target: Amyloid plaques (fibrillar amyloid β deposits in brain tissue) (human AD brain; transgenic mouse models) (UniProt P05067); assay: immunohistochemistry, B6 PS2APP mouse paraffin sections
[4] = biological target: Amyloid plaques (fibrillar amyloid β deposits in brain tissue) (human AD brain; transgenic mouse models) (UniProt P05067); assay: immunohistochemistry, B6.PS2APP mouse paraffin sections
[5] = biological target: Amyloid plaques (fibrillar amyloid β deposits in brain tissue) (human AD brain; transgenic mouse models) (UniProt P05067); assay: in vitro MRI
[6] = biological target: Amyloid plaques (fibrillar amyloid β deposits in brain tissue) (human AD brain; transgenic mouse models) (UniProt P05067); assay: immunohistochemistry
[7] = biological target: Amyloid plaques (fibrillar amyloid β deposits in brain tissue) (human AD brain; transgenic mouse models) (UniProt P05067); assay: in vitro MRI of PS2APP mouse brains incubated with the conjugate
[8] = biological target: Amyloid plaques (fibrillar amyloid β deposits in brain tissue) (human AD brain; transgenic mouse models) (UniProt P05067); assay: ex vivo MRI after intravenous injection in PS2APP mice
[9] = biological target: Amyloid plaques (fibrillar amyloid β deposits in brain tissue) (human AD brain; transgenic mouse models) (UniProt P05067); assay: ex vivo MRI after iv injection
[10] = biological target: Amyloid plaques (fibrillar amyloid β deposits in brain tissue) (human AD brain; transgenic mouse models) (UniProt P05067); assay: IHC and MRI after intracerebroventricular injection
[11] = biological target: Amyloid plaques (fibrillar amyloid β deposits in brain tissue) (human AD brain; transgenic mouse models) (UniProt P05067); assay: IHC after soaking of TauPS2APP mouse brains
[12] = biological target: Amyloid plaques (fibrillar amyloid β deposits in brain tissue) (human AD brain; transgenic mouse models) (UniProt P05067); assay: IHC after stereotaxic injection
[13] = biological target: Amyloid plaques (fibrillar amyloid β deposits in brain tissue) (human AD brain; transgenic mouse models) (UniProt P05067); assay: IHC after stereotaxic injection in mice
[14] = biological target: Amyloid plaques (fibrillar amyloid β deposits in brain tissue) (human AD brain; transgenic mouse models) (UniProt P05067); assay: IHC and ex vivo MRI after intracerebroventricular injection
[15] = biological target: Amyloid plaques (fibrillar amyloid β deposits in brain tissue) (human AD brain; transgenic mouse models) (UniProt P05067); assay: two-photon imaging
[16] = biological target: Amyloid angiopathy (CAA), vascular amyloid β deposits (human AD brain; transgenic mouse models) (UniProt P05067); assay: two-photon imaging
[17] = biological target: Amyloid plaques (fibrillar amyloid β deposits in brain tissue) (human AD brain; transgenic mouse models) (UniProt P05067); assay: IHC with anti-His mAb after iv injection
[18] = biological target: Amyloid angiopathy (CAA), vascular amyloid β deposits (human AD brain; transgenic mouse models) (UniProt P05067); assay: two-photon microscopy after intravenous injection
[19] = biological target: Amyloid plaques (fibrillar amyloid β deposits in brain tissue) (human AD brain; transgenic mouse models) (UniProt P05067); assay: two-photon microscopy after topic brain infusion
[20] = biological target: Amyloid angiopathy (CAA), vascular amyloid β deposits (human AD brain; transgenic mouse models) (UniProt P05067); assay: two-photon microscopy after topic brain infusion
[21] = biological target: Amyloid angiopathy (CAA), vascular amyloid β deposits (human AD brain; transgenic mouse models) (UniProt P05067); assay: two-photon imaging after iv injection
[22] = biological target: Amyloid plaques (fibrillar amyloid β deposits in brain tissue) (human AD brain; transgenic mouse models) (UniProt P05067); assay: immunohistochemistry on PS2APP brain slices
[23] = biological target: Amyloid plaques (fibrillar amyloid β deposits in brain tissue) (human AD brain; transgenic mouse models) (UniProt P05067); assay: two-photon microscopy and IHC after intravenous injection
[24] = biological target: Amyloid plaques (fibrillar amyloid β deposits in brain tissue) (human AD brain; transgenic mouse models) (UniProt P05067); assay: immunohistochemistry, human AD brain sections
[25] = biological target: Amyloid plaques (fibrillar amyloid β deposits in brain tissue) (human AD brain; transgenic mouse models) (UniProt P05067); assay: IHC after in vivo injection
[26] = biological target: Amyloid plaques (fibrillar amyloid β deposits in brain tissue) (human AD brain; transgenic mouse models) (UniProt P05067); assay: IHC after stereotaxic injection in TauPS2APP mice
[27] = biological target: Amyloid plaques (fibrillar amyloid β deposits in brain tissue) (human AD brain; transgenic mouse models) (UniProt P05067); assay: IHC after intracarotid injection in mice
[28] = biological target: Amyloid plaques (fibrillar amyloid β deposits in brain tissue) (human AD brain; transgenic mouse models) (UniProt P05067); assay: labeling, Table 1 (row printed for R3VE and R3VQ together)
[29] = biological target: Amyloid plaques (fibrillar amyloid β deposits in brain tissue) (human AD brain; transgenic mouse models) (UniProt P05067); assay: labeling, summary of Table 1

Measured: binding

B1: VHH R3VE (VHH, not shown: small tags and cut ends)
VHH: EVQLEASGGGLVQTGDSLRLSCADSGSTFRNYNIGWFRQTPGQAREFVAAVSRTGISTHVADSLQGRFTISRDNAKNTVYLQMNSLKPEDTAVYSCAAGRPGVGAVNRAMDYDYWGQGTQVTVSS
binds: [1] | [2]

B2: R3VQ-SH (Cys-engineered R3VQ VHH) (VHH)
VHH: AVQLQASGGGLVQTGDSLRLSCADSGSTFRNYNIGWFRQTPGQAREFVAAVSRTGISTHVADSLQGRFTISRDNAKNTVYLQMNSLKPEDTAVYSCAAGRPGVGAVNRAMDYDYWGQGTQVTVGG
binds: [3] | [4]

B3: R3VQ-S-(DOTA/Gd)3 (VHH)
VHH: AVQLQASGGGLVQTGDSLRLSCADSGSTFRNYNIGWFRQTPGQAREFVAAVSRTGISTHVADSLQGRFTISRDNAKNTVYLQMNSLKPEDTAVYSCAAGRPGVGAVNRAMDYDYWGQGTQVTVGG
modifications: maleimido-(DOTA/Gd)3 compound 4 on the engineered C-terminal Cys (thio-addition)
binds: [5] | [6] | [7] | [8] | [9]

B4: R3VQ-N-(DOTA/Gd)1-2 conjugate 2e (VHH, not shown: small tags and cut ends)
VHH: EVQLQASGGGLVQTGDSLRLSCADSGSTFRNYNIGWFRQTPGQAREFVAAVSRTGISTHVADSLQGRFTISRDNAKNTVYLQMNSLKPEDTAVYSCAAGRPGVGAVNRAMDYDYWGQGTQVTVSS
modifications: DOTA/Gd randomly on lysine residues; average Gd/protein (0) 1 2 (3)
binds: [10] | [11] | [12] | [13] | [14]

B5: R3VQ-S-AF488 (VHH)
VHH: AVQLQASGGGLVQTGDSLRLSCADSGSTFRNYNIGWFRQTPGQAREFVAAVSRTGISTHVADSLQGRFTISRDNAKNTVYLQMNSLKPEDTAVYSCAAGRPGVGAVNRAMDYDYWGQGTQVTVGG
modifications: single maleimido-Alexa Fluor 488 (AF488) on the engineered C-terminal Cys
binds: [15] | [16] | [17] | [18] | [19] | [20] | [21] | [22] | [23]

B6: VHH R3VQ (VHH, not shown: large carriers)
VHH: EVQLQASGGGLVQTGDSLRLSCADSGSTFRNYNIGWFRQTPGQAREFVAAVSRTGISTHVADSLQGRFTISRDNAKNTVYLQMNSLKPEDTAVYSCAAGRPGVGAVNRAMDYDYWGQGTQVTVSS
binds: [24] | [6] | [25] | [26] | [27] | [28] | [29]
